Here are results for 62 compounds from PubChem BioAssay AID445 (National Center for Advancing Translational Sciences (NCATS), 2006).

This assay is described as follows: IkB Signaling. Particulars: ABC-DLBCL IkBa-CBG/CBR dual luciferase ratio (green luciferase fused to IkBa over red control in OCI-Ly3 lymphoma cells), 4 h. A digest of the protocol:
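In this assay, an IκBα–CBG68 fusion accumulates when IKK-driven degradation is blocked; native CBR normalizes for cell number. OCI-Ly3 cells were treated 4 h with compound and doxycycline, then green and red light read after Chroma-Glo addition.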

Where [1] appears, read: measured here: control luc red channel unless noted.

Structures are written as SMILES. The list shows a part of the results. Shown are side measurements of this screen, not its main read-out; they come without a call. Most of these compounds were active or inconclusive in the main read-out, so they are no random draw. The note in brackets gives the kind of curve behind each potency; many fits are weak.

With `O=C(NCC(c1cccnc1)N1CCc2ccccc21)c1ccc(F)cc1` (stereo not drawn), under setting [1], the half-maximal activity concentration (AC50) was 25.1 µM [falling, single point].

Regarding `CCOC(=O)CCSc1nc2c(c(C(F)(F)F)c1C#N)CCC2`, the AC50 under setting [1] is 12.6 µM [falling, partial curve].

Regarding `CCCOC(=O)CSc1nnc(-c2cc(OC)c(OC)c(OC)c2)o1`, the AC50 under setting [1] was 7.94 µM [falling, partial curve].

For `Cc1c(C(=O)N(Cc2ccco2)Cc2ccccc2Cl)oc2ccc(F)cc12`, the AC50 under setting [1] is 10 µM [falling, partial curve].

As for `COc1ccc(OC(C)C(=O)NCc2nc(-c3cccc(C)c3)no2)cc1` (stereo not drawn), the AC50 under setting [1] is 25.1 µM [falling, partial curve].

As to `CCS(=O)(=O)c1ccccc1C(=O)Nc1ccc(-c2nc3ccccc3s2)cc1`, the AC50 under setting [1] was 1 µM [rising, full curve, poor fit].

For `O=C(Nc1ccc2nc(SCCOc3ccccc3Cl)sc2c1)c1ccc2c(c1)OCO2`, the AC50 under setting [1] is 1 µM [falling, full curve].

`Cc1ccc(S(=O)(=O)NCc2ccc(C(=O)NCCc3cccc(C)c3)cc2)cc1`: under setting [1], the AC50 was 3.98 µM [rising, single point] [measured here: IkB-luc green channel].

In the case of `N#Cc1c(C(F)(F)F)cc(-c2cccs2)nc1SCC(=O)Nc1cccc(C(F)(F)F)c1`, the half-maximal activity concentration (AC50) under setting [1] was 20 µM [falling, partial curve, poor fit].

Consider `O=C(c1ccccc1Br)N1CCC(c2nc3ccccc3o2)CC1`, for which, under setting [1], the concentration at half-maximal activity (AC50) is 31.6 µM [falling, single point].

With `Cc1ccc(Cn2c(=O)n(-c3cc(C)cc(C)c3)c(=O)c3oc4ccccc4c32)cc1`, the AC50 under setting [1] is 12.6 µM [falling, partial curve].

For the compound `CN1C(=O)C(C)(C)c2cc(S(=O)(=O)N3CCCC3C(=O)Nc3ccc(F)cc3)ccc21` (stereo not drawn), the concentration at half-maximal activity (AC50) under setting [1] is 15.8 µM [falling, partial curve].

Regarding `COc1cc(Cl)c(C)cc1NC(=O)c1sc2nc(C)cc(C)c2c1N`, the AC50 under setting [1] was 2.51 µM [falling, full curve].

In the case of `Cc1ccsc1CN(C(=O)COc1cccc(C)c1C)C1CCS(=O)(=O)C1` (stereo not drawn), the AC50 under setting [1] was 15.8 µM [falling, partial curve].

As to `COc1ccccc1NC(=O)C(Cc1ccccc1)NS(=O)(=O)c1cccc2nsnc12` (stereo not drawn), the AC50 under setting [1] is 12.6 µM [falling, partial curve].

Take `CCCCOC(=O)c1cccc(NC(=O)/C=C/c2ccccc2Cl)c1`: the AC50 under setting [1] was 7.94 µM [falling, full curve].

On to `O=C(Cn1c(SCC(=O)Nc2ccc(F)cc2)nc2ccccc21)NCc1ccccc1Cl`, for which the AC50 under setting [1] was 31.6 µM [falling, partial curve].

In the case of `COc1ccc(OC)c(NC(=O)CSc2nc3ccccc3c(=O)n2CCC(=O)NC2CCCCC2)c1`, the half-maximal activity concentration (AC50) under setting [1] was 0.00501 µM [rising, full curve, poor fit].

As to `CCCn1c(=O)c2[nH]c(-c3ccc(OCC(=O)NCCN)cc3)nc2n(CCC)c1=O`, the AC50 under setting [1] is 12.6 nM [falling, full curve, poor fit] [measured here: IkB-luc green channel].

As for `COc1cc(OC)cc(C(=O)Nc2cc(-c3nc4cccnc4s3)ccc2C)c1`, the AC50 under setting [1] was 25.1 µM [falling, single point].

For the compound `CCNc1nc(N)nc(Oc2ccc(C(=O)OC)cc2)n1`, the half-maximal activity concentration (AC50) under setting [1] was 15.8 µM [rising, partial curve].

Regarding `COc1ccc(NC(=O)C2CCN(S(=O)(=O)c3ccc4c(c3)CCCC(=O)N4)CC2)c(OC)c1`, the concentration at half-maximal activity (AC50) under setting [1] is 25.1 µM [falling, partial curve].

On to `Cn1c(=O)c(=O)n(C)c2cc(S(=O)(=O)N3CCCC3C(=O)Nc3ccc(F)cc3)ccc21` (stereo not drawn), for which the AC50 under setting [1] is 10 µM [falling, partial curve].

`CCOc1ccc(CNC(=O)Cn2ccc3cc(S(=O)(=O)N4CCCCC4)ccc32)cc1`: the AC50 under setting [1] is 12.6 µM [falling, partial curve].

Consider `CCOc1ccc(CNc2cc(C)nc3nc(-c4cccc(C)c4)nn23)cc1OC`, for which the AC50 under setting [1] was 12.6 µM [falling, partial curve].

Take `Cc1cccc(NC(=O)c2ccc3oc(=O)c(S(=O)(=O)c4ccc(F)cc4)cc3c2)c1C`: under setting [1], the concentration at half-maximal activity (AC50) is 3.16 µM [falling, partial curve].

For `CCOc1ccccc1Oc1ncnc2c1oc1ccccc12`, the AC50 under setting [1] is 3.98 µM [rising, partial curve].

`CCOc1ccccc1CNCc1c(C(=O)O)n(Cc2ccccc2)c2cc(OC)ccc12`: the AC50 under setting [1] was 15.8 µM [falling, single point].

`Cc1ccc(S(=O)(=O)Nc2ccc(-c3ccc(N4CCCCCC4)nn3)cc2)c(C)c1`: the AC50 under setting [1] was 6.31 µM [falling, partial curve].

For `CCOC(=O)c1cc(C)n(CC2CCC(C(=O)Nc3cccc(C(C)=O)c3)CC2)c1C` (stereo not drawn), under setting [1], the AC50 was 7.94 µM [falling, partial curve].

As for `CCOc1ccccc1C1C(C(=O)Nc2ccccc2)=C(C)Nc2nc(-c3ccccc3)nn21` (stereo not drawn), the half-maximal activity concentration (AC50) under setting [1] was 15.8 µM [falling, partial curve].

Consider `COc1ccccc1OCc1nc2ccccc2n1Cc1ccccc1`, for which, under setting [1], the AC50 was 15.8 µM [falling, single point].

In the case of `CC(C)NC(=O)CSc1cn(CC(=O)N2CCCCCC2)c2ccccc12`, the AC50 under setting [1] is 39.8 µM [falling, single point].

On to `COc1ccc(CCCc2nnc(SCC(=O)Nc3cc(C)c(C)cc3Br)o2)cc1`, for which the AC50 under setting [1] is 5.01 µM [falling, partial curve].

Turning to `COc1ccc(N2CCN(C(=O)c3cnc(N4CCOCC4)c4ccccc34)CC2)cc1`, the half-maximal activity concentration (AC50) under setting [1] was 2 µM [rising, partial curve].

On to `Cc1ccc(Cl)cc1NC(=O)CN1C(=O)c2ccccc2Sc2ncccc21`, for which, under setting [1], the AC50 was 39.8 µM [falling, single point].

Take `COC(=O)c1c(NC(=O)CSc2nnc(-c3cccnc3)n2Cc2ccco2)sc(C)c1C`: under setting [1], the AC50 was 10 µM [falling, partial curve].

With `COc1ccc(CCNC(=O)c2ccc3c(c2)nc2n3CCCCC2)cc1OC`, under setting [1], the concentration at half-maximal activity (AC50) was 0.126 µM [falling, full curve, poor fit].

With `Cc1cccc(N2CCN(Cc3nnc(-c4cccc(Br)c4)o3)CC2)c1C`, the AC50 under setting [1] was 15.8 µM [falling, partial curve].

As for `Cc1csc(SCC(=O)Nc2ccccn2)n1`, the half-maximal activity concentration (AC50) under setting [1] was 3.98 µM [falling, partial curve].

For `Cc1cc(/C=N/n2cnnc2)c(C)n1-c1ccc(OCc2ccc(F)cc2)cc1`, under setting [1], the concentration at half-maximal activity (AC50) was 7.94 µM [falling, partial curve].

Turning to `COc1ccccc1NC(=O)Cn1c(=O)oc2cc(S(=O)(=O)NCc3ccccc3)ccc21`, the AC50 under setting [1] was 20 µM [falling, single point].

`Clc1ccc2nc(-c3ccc(N4CCOCC4)cc3)c(Nc3ccccc3)n2c1`: the concentration at half-maximal activity (AC50) under setting [1] is 15.8 µM [falling, single point].

Consider `COc1ccc(N2CCN(CC(=O)Nc3nc4c(s3)CC(C)CC4)CC2)cc1` (stereo not drawn), for which the AC50 under setting [1] was 15.8 µM [falling, partial curve].

With `CCCc1ccc(OCc2ccc(C(=O)Nc3ccccc3C(=O)OC)o2)cc1`, the AC50 under setting [1] is 39.8 µM [falling, single point].

As for `CCc1ccc(CNC(=O)c2cccc(-n3c(C)nc4cccnc43)c2)cc1`, the AC50 under setting [1] is 15.8 µM [falling, single point].

`CCc1ccc(NC(=O)Cn2c(=O)n(-c3cccc(OC)c3)c(=O)c3c(C)c(C(=O)N(C)C)sc32)cc1`: under setting [1], the AC50 is 3.98 µM [rising, partial curve].

`CCc1ccc(-c2nnn(Cc3nc4ccccc4s3)n2)cc1`: under setting [1], the AC50 is 39.8 µM [falling, single point].

For the compound `CCCCN(CC)C(=O)c1ccc2c(c1)NC(=O)c1ccccc1S2`, under setting [1], the concentration at half-maximal activity (AC50) was 39.8 µM [falling, single point].

In the case of `CSc1nnc(NC(=O)c2cc(=O)c3cc(C)c(C)cc3o2)s1`, under setting [1], the AC50 was 2.51 µM [rising, partial curve].

`CC(C)Cc1nnc(NC(=O)CSc2nc(=O)cc(N)n2-c2ccccc2)s1`: the half-maximal activity concentration (AC50) under setting [1] was 7.94 µM [falling, partial curve].

As to `COc1ccc(OC)c([C@@H]2Nc3ccc(C(=O)O)cc3[C@@H]3C=CC[C@@H]32)c1`, the AC50 under setting [1] was 7.94 µM [falling, partial curve].

`Cc1noc(/C=C/NCc2cccnc2)c1S(=O)(=O)N(C)CC(=O)N1CCc2ccccc21`: under setting [1], the concentration at half-maximal activity (AC50) is 7.94 µM [falling, partial curve].

For `COc1ccccc1N1CCN(C(=O)CSc2ncccc2-c2nc3ccccc3[nH]2)CC1`, the AC50 under setting [1] was 0.501 µM [falling, full curve].

As to `CC(C)Cn1c(-c2ccccc2Cl)nc2ccccc21`, the concentration at half-maximal activity (AC50) under setting [1] is 10 µM [falling, partial curve].

Consider `CCC(c1nnnn1Cc1ccco1)N1CCN(c2cc(Cl)ccc2C)CC1` (stereo not drawn), for which, under setting [1], the concentration at half-maximal activity (AC50) was 39.8 µM [falling, single point].

On to `O=C1c2ccccc2-c2cc([N+](=O)[O-])c([N+](=O)[O-])cc21`, for which the concentration at half-maximal activity (AC50) (measured here: IkB-luc green channel) was 3.98 µM [rising, partial curve] and the AC50 (measured here: control luc red channel) is 3.98 µM [falling, single point].

Regarding `CCOc1ccc(-c2c(C)nn3c(C)c(C(=O)NCCN(C)C)cnc23)cc1OCC`, under setting [1], the AC50 was 31.6 µM [falling, single point].

Consider `COc1ccccc1N=c1oc2cc(O)ccc2cc1C(=O)NCC1CCCO1` (stereo not drawn), for which the AC50 under setting [1] was 2 µM [falling, full curve, poor fit].

Regarding `O=C(Cn1ncn2cccc2c1=O)NCc1cccc(Br)c1`, under setting [1], the half-maximal activity concentration (AC50) is 39.8 µM [falling, single point].

Turning to `COc1ccc(N(CC(C)C)S(=O)(=O)c2nnc(NC(=O)c3ccco3)s2)cc1`, under setting [1], the AC50 was 7.94 µM [falling, full curve].

Take `COc1ccc(NC(=O)c2cc(-c3ccc(F)cc3)no2)cc1OC`: the half-maximal activity concentration (AC50) under setting [1] is 20 µM [falling, single point].
